Laboratory results as given in article PMC6043850.
No constants are given. Whether binding was seen depends on the method and setting. In cells and extracts the contact can be indirect. Where a sequence is shown, tags or fusion partners need not be part of it.

By UniProt entry, the sequences of proteins in these tests, tags left out.
UniProt P29466: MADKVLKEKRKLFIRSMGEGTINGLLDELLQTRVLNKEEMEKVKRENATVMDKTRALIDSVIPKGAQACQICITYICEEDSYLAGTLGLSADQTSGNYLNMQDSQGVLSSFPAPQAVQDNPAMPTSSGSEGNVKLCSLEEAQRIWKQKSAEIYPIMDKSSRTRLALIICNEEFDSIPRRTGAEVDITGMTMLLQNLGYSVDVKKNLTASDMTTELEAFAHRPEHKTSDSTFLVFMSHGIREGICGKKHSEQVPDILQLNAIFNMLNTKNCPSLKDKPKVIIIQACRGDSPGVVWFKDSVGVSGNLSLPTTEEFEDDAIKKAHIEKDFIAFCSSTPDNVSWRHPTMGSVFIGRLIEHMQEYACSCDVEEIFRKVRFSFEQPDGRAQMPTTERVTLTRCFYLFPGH
UniProt O00463: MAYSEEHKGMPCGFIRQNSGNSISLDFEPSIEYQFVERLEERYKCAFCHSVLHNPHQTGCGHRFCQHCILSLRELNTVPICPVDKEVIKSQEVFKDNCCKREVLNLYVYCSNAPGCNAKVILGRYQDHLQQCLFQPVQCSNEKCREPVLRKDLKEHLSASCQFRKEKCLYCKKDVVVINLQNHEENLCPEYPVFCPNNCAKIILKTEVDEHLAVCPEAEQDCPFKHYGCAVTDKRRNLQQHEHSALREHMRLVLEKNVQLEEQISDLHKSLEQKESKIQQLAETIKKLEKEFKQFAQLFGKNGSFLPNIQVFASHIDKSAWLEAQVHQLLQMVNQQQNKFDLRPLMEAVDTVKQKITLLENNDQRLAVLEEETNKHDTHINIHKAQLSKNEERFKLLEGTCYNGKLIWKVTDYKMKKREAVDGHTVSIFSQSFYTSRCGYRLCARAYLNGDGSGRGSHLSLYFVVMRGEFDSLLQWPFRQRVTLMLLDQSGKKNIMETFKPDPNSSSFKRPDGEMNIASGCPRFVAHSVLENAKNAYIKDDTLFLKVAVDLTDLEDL

T1: Myc-TRAF2 (UniProt Q12933)
T1 sequence: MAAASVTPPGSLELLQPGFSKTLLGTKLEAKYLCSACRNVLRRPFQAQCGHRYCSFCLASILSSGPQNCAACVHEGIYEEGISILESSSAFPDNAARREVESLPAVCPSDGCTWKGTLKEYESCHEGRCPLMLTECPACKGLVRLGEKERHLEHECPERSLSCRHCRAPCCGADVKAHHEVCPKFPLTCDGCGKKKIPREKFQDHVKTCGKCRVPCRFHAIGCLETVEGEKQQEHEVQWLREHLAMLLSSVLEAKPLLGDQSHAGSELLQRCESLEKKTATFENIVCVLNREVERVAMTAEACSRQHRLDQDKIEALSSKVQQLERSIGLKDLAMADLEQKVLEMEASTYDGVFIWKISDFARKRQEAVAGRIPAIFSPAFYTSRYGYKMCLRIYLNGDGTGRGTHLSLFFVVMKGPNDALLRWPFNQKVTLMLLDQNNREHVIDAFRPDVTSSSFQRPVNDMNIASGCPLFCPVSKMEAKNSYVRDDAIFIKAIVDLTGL

T2: Casp2(C320A)-Myc (UniProt P42575)
T2 sequence: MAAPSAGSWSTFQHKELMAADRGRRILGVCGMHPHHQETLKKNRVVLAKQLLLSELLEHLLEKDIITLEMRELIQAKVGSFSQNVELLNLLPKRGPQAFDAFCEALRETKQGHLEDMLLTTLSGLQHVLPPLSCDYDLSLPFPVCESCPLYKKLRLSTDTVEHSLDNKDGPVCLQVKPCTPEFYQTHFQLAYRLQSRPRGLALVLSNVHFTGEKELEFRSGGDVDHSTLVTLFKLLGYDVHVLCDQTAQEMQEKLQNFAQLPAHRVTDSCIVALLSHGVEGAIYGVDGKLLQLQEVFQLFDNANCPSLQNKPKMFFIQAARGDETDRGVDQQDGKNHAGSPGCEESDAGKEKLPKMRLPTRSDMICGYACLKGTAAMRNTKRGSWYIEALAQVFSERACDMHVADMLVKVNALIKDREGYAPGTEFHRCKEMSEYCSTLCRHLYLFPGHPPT

B1: caspase-4 (endogenous) (protein, UniProt P49662 1-377)
chain: MAEGNHRKKPLKVLESLGKDFLTGVLDNLVEQNVLNWKEEEKKKYYDAKTEDKVRVMADSMQEKQRMAGQMLLQTFFNIDQISPNKKAHPNMEAGPPESGESTDALKLCPHEEFLRLCKERAEEIYPIKERNNRTRLALIICNTEFDHLPPRNGADFDITGMKELLEGLDYSVDVEENLTARDMESALRAFATRPEHKSSDSTFLVLMSHGILEGICGTVHDEKKPDVLLYDTIFQIFNNRNCLSLKDKPKVIIVQACRGANRGELWVRDSPASLEVASSQSSENLEEDAVYKTHVEKDFIAFCSSTPHNVSWRDSTMGSIFITQLITCFQKYSWCCHLEEVFRKVQQSFETPRAKAQMPTIERLSMTRYFYLFPGN
B2: caspase-5 (endogenous) (protein, UniProt P51878 1-434)
chain: MAEDSGKKKRRKNFEAMFKGILQSGLDNFVINHMLKNNVAGQTSIQTLVPNTDQKSTSVKKDNHKKKTVKMLEYLGKDVLHGVFNYLAKHDVLTLKEEEKKKYYDTKIEDKALILVDSLRKNRVAHQMFTQTLLNMDQKITSVKPLLQIEAGPPESAESTNILKLCPREEFLRLCKKNHDEIYPIKKREDRRRLALIICNTKFDHLPARNGAHYDIVGMKRLLQGLGYTVVDEKNLTARDMESVLRAFAARPEHKSSDSTFLVLMSHGILEGICGTAHKKKKPDVLLYDTIFQIFNNRNCLSLKDKPKVIIVQACRGEKHGELWVRDSPASLALISSQSSENLEADSVCKIHEEKDFIAFCSSTPHNVSWRDRTRGSIFITELITCFQKYSCCCHLMEIFRKVQKSFEVPQAKAQMPTIERATLTRDFYLFPGN
B3: TRAF4 with C-terminal Flag tag (protein, UniProt Q9BUZ4 1-470)
chain: MPGFDYKFLEKPKRRLLCPLCGKPMREPVQVSTCGHRFCDTCLQEFLSEGVFKCPEDQLPLDYAKIYPDPELEVQVLGLPIRCIHSEEGCRWSGPLRHLQGHLNTCSFNVIPCPNRCPMKLSRRDLPAHLQHDCPKRRLKCEFCGCDFSGEAYESHEGMCPQESVYCENKCGARMMRRLLAQHATSECPKRTQPCTYCTKEFVFDTIQSHQYQCPRLPVACPNQCGVGTVAREDLPGHLKDSCNTALVLCPFKDSGCKHRCPKLAMARHVEESVKPHLAMMCALVSRQRQELQELRRELEELSVGSDGVLIWKIGSYGRRLQEAKAKPNLECFSPAFYTHKYGYKLQVSAFLNGNGSGEGTHLSLYIRVLPGAFDNLLEWPFARRVTFSLLDQSDPGLAKPQHVTETFHPDPNWKNFQKPGTWRGSLDESSLGFGYPKFISHQDIRKRNYVRDDAVFIRAAVELPRKILS
B4: Flag-TRAF7 (protein, UniProt Q6Q0C0 1-670)
chain: MSSGKSARYNRFSGGPSNLPTPDVTTGTRMETTFGPAFSAVTTITKADGTSTYKQHCRTPSSSSTLAYSPRDEEDSMPPISTPRRSDSAISVRSLHSESSMSLRSTFSLPEEEEEPEPLVFAEQPSVKLCCQLCCSVFKDPVITTCGHTFCRRCALKSEKCPVDNVKLTVVVNNIAVAEQIGELFIHCRHGCRVAGSGKPPIFEVDPRGCPFTIKLSARKDHEGSCDYRPVRCPNNPSCPPLLRMNLEAHLKECEHIKCPHSKYGCTFIGNQDTYETHLETCRFEGLKEFLQQTDDRFHEMHVALAQKDQEIAFLRSMLGKLSEKIDQLEKSLELKFDVLDENQSKLSEDLMEFRRDASMLNDELSHINARLNMGILGSYDPQQIFKCKGTFVGHQGPVWCLCVYSMGDLLFSGSSDKTIKVWDTCTTYKCQKTLEGHDGIVLALCIQGCKLYSGSADCTIIVWDIQNLQKVNTIRAHDNPVCTLVSSHNVLFSGSLKAIKVWDIVGTELKLKKELTGLNHWVRALVAAQSYLYSGSYQTIKIWDIRTLDCIHVLQTSGGSVYSIAVTNHHIVCGTYENLIHVWDIESKEQVRTLTGHVGTVYALAVISTPDQTKVFSASYDRSLRVWSMDNMICTQTLLRHQGSVTALAVSRGRLFSGAVDSTVKVWTC

The molecules below were run against T1, Myc-TRAF2 (assay: co-IP; Myc-TRAF2 expressed in HeLa for 48 h; Myc-Trap IP, immunoblot for endogenous caspases).
In the case of “caspase-1 (endogenous) (from UniProt P29466 1-404)”, the binding is reported as “no binding”. For B1, the binding was “no binding”. In the case of B2, the binding is reported as “no binding”.

The molecules below were run against T2, Casp2(C320A)-Myc (assay: co-IP; Casp2(C320A)-Myc and Flag-tagged TRAF1-7 co-expressed in HEK293T for 48 h; anti-Myc agarose IP, immunoblot).
In the case of Flag-TRAF5 (from UniProt O00463 1-557), the binding is reported as “no binding”. For B3, the binding was “no binding”. For B4, the binding was “no binding”.
